Experimental data from publication PMC4364741.
These are yes or no findings as the source states them, for the method shown. Binding can be weak; no strength is given.

The chains behind the UniProt entries cited, without tags or fusion partners. Where a name states a change or a piece, a line headed by the entry shows the natural chain unless it says otherwise. Residues count along the entry.
UniProt Q9JZJ0: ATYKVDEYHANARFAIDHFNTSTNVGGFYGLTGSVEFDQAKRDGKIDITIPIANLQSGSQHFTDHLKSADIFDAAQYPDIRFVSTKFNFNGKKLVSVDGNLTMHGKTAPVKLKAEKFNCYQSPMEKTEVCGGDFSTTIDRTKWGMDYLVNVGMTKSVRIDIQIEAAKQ
UniProt Q9JXE1: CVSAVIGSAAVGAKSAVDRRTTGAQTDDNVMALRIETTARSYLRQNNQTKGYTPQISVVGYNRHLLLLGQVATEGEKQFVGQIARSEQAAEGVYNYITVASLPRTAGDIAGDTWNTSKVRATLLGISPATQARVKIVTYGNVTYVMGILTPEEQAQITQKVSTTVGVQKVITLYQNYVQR
UniProt P26022, residues 18-381: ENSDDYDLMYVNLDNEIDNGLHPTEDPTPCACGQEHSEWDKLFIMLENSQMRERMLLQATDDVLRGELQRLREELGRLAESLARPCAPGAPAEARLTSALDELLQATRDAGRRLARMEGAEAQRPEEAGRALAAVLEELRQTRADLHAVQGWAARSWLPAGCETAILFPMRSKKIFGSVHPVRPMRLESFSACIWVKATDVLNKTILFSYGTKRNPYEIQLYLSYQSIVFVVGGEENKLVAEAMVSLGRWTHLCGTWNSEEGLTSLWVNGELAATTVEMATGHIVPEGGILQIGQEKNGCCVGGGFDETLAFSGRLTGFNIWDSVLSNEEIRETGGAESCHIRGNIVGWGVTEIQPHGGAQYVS
UniProt P48759, residues 18-381: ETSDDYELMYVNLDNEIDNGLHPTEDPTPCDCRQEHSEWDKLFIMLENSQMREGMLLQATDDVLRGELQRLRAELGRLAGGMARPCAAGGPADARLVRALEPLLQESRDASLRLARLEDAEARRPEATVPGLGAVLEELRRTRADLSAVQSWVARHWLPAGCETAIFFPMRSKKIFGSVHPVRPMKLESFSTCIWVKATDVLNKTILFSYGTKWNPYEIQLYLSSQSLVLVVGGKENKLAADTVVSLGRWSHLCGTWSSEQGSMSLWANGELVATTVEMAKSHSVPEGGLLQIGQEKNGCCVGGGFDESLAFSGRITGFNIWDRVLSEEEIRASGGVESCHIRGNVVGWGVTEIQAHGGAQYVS
UniProt P02743, residues 20-223: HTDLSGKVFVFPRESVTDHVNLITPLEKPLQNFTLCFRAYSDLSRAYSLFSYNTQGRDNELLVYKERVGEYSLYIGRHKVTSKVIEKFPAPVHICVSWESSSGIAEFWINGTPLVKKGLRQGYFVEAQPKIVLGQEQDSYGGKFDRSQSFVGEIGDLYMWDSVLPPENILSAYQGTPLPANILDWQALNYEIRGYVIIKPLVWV

Legend:
[1] = target: Genome-derived Neisserial antigen GNA1030 (Neisseria meningitidis) (UniProt Q9JZJ0); test: ELISA; plastic wells coated with the recombinant Nm proteins (1 μg/well), incubated with human or murine PTX3, human CRP or SAP (22 pmoles) for 1 h at 37°C, then antibodies; A450; both purified
[2] = target: Genome-derived Neisserial antigen GNA2091 (Neisseria meningitidis) (UniProt Q9JXE1); test: as above
[3] = target: Genome-derived Neisserial antigen GNA1030 (Neisseria meningitidis) (UniProt Q9JZJ0); test: ELISA; microtiter plate; N-terminal or C-terminal PTX3 domains (22 pmoles) on coated GNA0667, GNA1030 and GNA2091; percentage of binding compared to full length PTX3; both purified
[4] = target: Genome-derived Neisserial antigen GNA2091 (Neisseria meningitidis) (UniProt Q9JXE1); test: as above
[5] = target: Genome-derived Neisserial antigen GNA1030 (Neisseria meningitidis) (UniProt Q9JZJ0); test: ELISA; microtiter plate; different doses of bPTX3 on coated GNA0667, GNA1030 and GNA2091 (1 μg/well); both purified
[6] = target: Genome-derived Neisserial antigen GNA2091 (Neisseria meningitidis) (UniProt Q9JXE1); test: as above
[7] = target: Genome-derived Neisserial antigen GNA1030 (Neisseria meningitidis) (UniProt Q9JZJ0); test: ELISA; microtiter plate; PTX3 on coated Nm antigens in the presence or not of calcium (10 mM EGTA); both purified
[8] = target: Genome-derived Neisserial antigen GNA2091 (Neisseria meningitidis) (UniProt Q9JXE1); test: as above
[9] = target: T1, Genome-derived Neisserial antigen GNA0667 (Neisseria meningitidis) (UniProt Q9K0E2); test: ELISA; microtiter plate; N-terminal or C-terminal PTX3 domains (22 pmoles) on coated GNA0667, GNA1030 and GNA2091; percentage of binding compared to full length PTX3; both purified
T1 sequence: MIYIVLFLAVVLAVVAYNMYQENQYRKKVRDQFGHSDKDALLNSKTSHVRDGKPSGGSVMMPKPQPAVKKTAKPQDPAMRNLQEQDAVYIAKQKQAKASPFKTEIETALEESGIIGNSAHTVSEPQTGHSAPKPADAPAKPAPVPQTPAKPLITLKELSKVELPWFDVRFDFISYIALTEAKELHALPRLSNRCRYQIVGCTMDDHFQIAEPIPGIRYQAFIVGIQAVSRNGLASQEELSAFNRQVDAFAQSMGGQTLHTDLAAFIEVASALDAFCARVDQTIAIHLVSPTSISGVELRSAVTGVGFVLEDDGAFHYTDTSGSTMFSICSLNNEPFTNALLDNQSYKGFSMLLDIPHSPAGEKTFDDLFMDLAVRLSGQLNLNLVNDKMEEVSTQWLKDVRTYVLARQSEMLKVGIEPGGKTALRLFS

[10] = target: Recombinant human long pentraxin 3 (PTX3) (human) (UniProt P26022); test: ELISA; plates coated with human PTX3 (1 μg/well), incubated with Nm antigens (1 μg/well), revealed with specific polyclonal antibodies (1:1000) and HRP-linked secondary antibody; A450; both purified

With “Recombinant murine PTX3 (from UniProt P48759 18-381)” the binding [1] was “binds” and the binding [2] was “binds”.

With “Recombinant human long pentraxin 3 (PTX3) (from UniProt P26022 18-381)” the binding [3] was “binds”, the binding [4] was “binds” and the binding [1] was “binds”. For the same substance, the binding [2] was “binds”.

With “Biotinylated human PTX3 (bPTX3) (from UniProt P26022 18-381)” the binding [5] was “binds”, the binding [6] was “binds” and the binding [7] was “binds”. For the same substance, the binding [8] was “binds”.

For “Recombinant human PTX3 N-terminal domain (N-PTX3) (domain or fragment)”, the binding [9] was “binds”.

“Recombinant human PTX3 C-terminal domain (C-PTX3) (domain or fragment)” was tested, and the binding [9] was “no binding (tested: 22 pmoles)”.

In the case of “Genome-derived Neisserial antigen GNA1030 (from UniProt Q9JZJ0)”, the binding [10] is reported as “binds”.

In the case of “Genome-derived Neisserial antigen GNA2091 (from UniProt Q9JXE1)”, the binding [10] is reported as “binds”.

For “Serum amyloid P component (from UniProt P02743 20-223)”, the binding [1] was “binds” and the binding [2] was “binds”.
